# Library screening results

Source: ChEMBL document CHEMBL3988442, “University of Dundee, Small-Polar-MMV Screening Library” (2021).

The filed quantity is “Percent Effect” (%).
The record does not define 0% and 100%; most values in the screen are far below 50% and negative numbers occur (in some assays of this library far below -100).
This is an unselected part of the compounds tested.
Two or more numbers in one place are separate tests of the same structure; such repeats can differ widely.

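Viability assay of Plasmodium falciparum sporozoites; the read-out is not stated. The concentration is filed as 10 mM, unlikely as a test dose, so the dose is not known. The record gives no direction; compounds that gave an IC50 in retests scored well above the rest, so higher reads as lower viability. Strong results were mostly tested again. Size under these conditions: about 34,000 compounds, about 280 of them at 50% or above in at least one test.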

| # | Compound | effect |
|---|---|---|
| 1 | `O=C(O)C(F)(F)F.O=C(O)C(F)(F)F.[H][C@@]12CCN(C(=O)C(C)C)CC[C@]1(C(=O)Nc1cccnc1)CCN2C` | 14.71% |
| 2 | `COCCN1CCCC(Cc2cnc(-c3c(C)nn(C)c3C)cn2)C1` (stereo not drawn) | 1.499% |
| 3 | `CC(C(=O)NCc1ccnc(N2CCCC2)c1)n1cccn1` (stereo not drawn) | -0.8275% |
| 4 | `CNC(=O)CC1CCN(Cc2nc(-c3cccc(Cl)c3)oc2C)CC1` | -11.88% |
| 5 | `COc1cc(CNC2CCCc3c2cnn3C)cc(OC)c1.Cl` (stereo not drawn) | -2.4% |
| 6 | `CC(NC(=O)CCOc1cccc(F)c1)c1nnc2n1CCC2` (stereo not drawn) | -1.674% |
| 7 | `CC(C)c1cc(C(=O)NCC2CCCN(C(C)C)C2)n(C)n1.Cl` (stereo not drawn) | 4.683% |
| 8 | `CCn1cc(C(=O)N2CCCN(c3cccnn3)CC2)c2ccccc21` | -6.562% & -1.85% |
| 9 | `Cc1noc(C)c1CS(=O)(=O)CC(=O)N1c2ccccc2CC1C` (stereo not drawn) | 10.99% |
| 10 | `COc1ccccc1CN(C)c1nc2c(cnn2C)c(=O)[nH]1` | 2.514% |
| 11 | `Cn1cc(NS(=O)(=O)CC2CCCCO2)cn1` (stereo not drawn) | -7.171% |
| 12 | `CC1CN(C)CCN1Cc1cccc(C(=O)N(C)C)c1` (stereo not drawn) | 7.624% |
| 13 | `Cc1nc(O)c2c(n1)CCN(Cc1cc(C)sc1C)CC2` | 0.9591% |
| 14 | `Cc1nc2c(c(=O)[nH]1)CCN(C(=O)c1cccc3nccnc13)C2` | 1.439% |
| 15 | `Cc1ccc(NC(=O)N2CCN(Cc3noc(C4CC4)n3)CC2)cc1` | -6.205% |
| 16 | `N#Cc1cccc(OCCN2CCOC(Cn3cccn3)C2)c1` (stereo not drawn) | -4.758% |
| 17 | `CCOC(=O)N1CCN(C(=O)c2sc(-c3ccccc3F)nc2C)CC1` | 5.509% |
| 18 | `CCOc1cc(F)ccc1NC(=O)N(C)Cc1cnn(C)c1` | 9.594% |
| 19 | `COc1cc(C)c(C(C)NC(=O)Nc2nnc(C)s2)cc1OC` (stereo not drawn) | -9.919% |
| 20 | `CCN(C)[C@H]1CN(C(=O)c2cccc(N3CCS(=O)(=O)CC3)c2)C[C@@H]1O` | -10% |
| 21 | `CC1(c2ncc(CN3CCN(c4ncccn4)CC3)cn2)CCCCO1` (stereo not drawn) | -3.103% |
| 22 | `CC(C)(C)C(O)CN1CCN(C(=O)c2ccc3c(c2)COC3)CC1` (stereo not drawn) | 3.582% |
| 23 | `Cn1cc(CN2CCn3cc(CNC(=O)C4CCC4)nc3C2)cn1.O=C(O)C(F)(F)F` | 1.407% |
| 24 | `COc1c(C2CCCN2C(=O)c2cc(Cl)c[nH]2)c(C)nn1C` (stereo not drawn) | 0% |
| 25 | `[H][C@@]12C[C@H](C(=O)N3CCOCC3)[C@@]([H])(CN(c3ncc(F)cn3)C1)O2` | 4.219% |
| 26 | `COCCN(Cc1ccoc1)C(=O)c1cccnc1SC` | 5.028% |
| 27 | `CN(C)c1cc(C(=O)N2CCCC2)ccn1` | 2.247% |
| 28 | `CN(C)Cc1cc(C2CCCN(S(=O)(=O)c3cccc(Cl)c3)C2)nn1C` (stereo not drawn) | 6.869% |
| 29 | `Cc1scc(C(=O)N2CCC3(CCCN(C)C3=O)C2)c1-c1ccccc1` (stereo not drawn) | -8.353% |
| 30 | `O=C(CCc1cccs1)N1CCCC(N2CCNC2=O)C1` (stereo not drawn) | -15.23% & -6.361% & -22.46% |
| 31 | `Cn1cc(CN2CCOCC3(CCN(C4CCOCC4)C3)C2)cn1` (stereo not drawn) | -0.4866% |
| 32 | `c1ccc2nc(CN3CCCC3c3noc(C4CC4)n3)ccc2c1` (stereo not drawn) | 28.34% & 17.93% & 6.702% |
| 33 | `Cc1nn(C)c(N2CCOCC2)c1CNCc1ccc(C(C)O)cc1` (stereo not drawn) | 68.88% & 15.01% & 20.24% |
| 34 | `O=C(CSCc1ccncc1)NCc1csc(Br)c1` | -4.119% |
| 35 | `O=C(O)C(F)(F)F.[H][C@@]12CCN(c3cnccn3)C[C@]1([H])CN(C(=O)c1nccn1C)C2` | 16.95% |
| 36 | `CC(=O)c1cn(CCC(=O)N[C@H](C(=O)O)C(C)C)c2ccccc12` | 7.456% |
| 37 | `COc1ccccc1OCCNC(=O)CN1CCc2cncnc2C1` | -7.271% |
| 38 | `CC(NC(=O)CCCOc1ccccc1)c1nnc2n1CCCCC2` (stereo not drawn) | 7.04% |
| 39 | `COCc1noc(C2(c3ccc(OC)cc3)CCOCC2)n1` | 7.176% |
| 40 | `COc1ccc(C(C(=O)O)N(C)CCN2CCCC2)cc1F` (stereo not drawn) | 3.02% |
| 41 | `CCc1noc(C)c1-c1nc(Cc2cccs2)nn1C1CCN(C)CC1` | -19.25% & -22.71% |
| 42 | `Cl.O=C(c1ccnc(C2CCNCC2)c1)N1CCCC1` | 8.053% |
| 43 | `COc1ccc(C(=O)COc2coc(CN3CCCCC3)cc2=O)cc1` | -4.269% |
| 44 | `Nc1nc(CN2CCOC(Cn3cncn3)C2)nc2ccccc12` (stereo not drawn) | 25.24% & 10.94% & 20.34% |
| 45 | `COc1cccc2c1OCCCN(c1nc(N)nc3c1CCNC3)C2` | -95.97% & -98.91% |
| 46 | `O=C(O)C(F)(F)F.[H][C@@]12CN(CC3CCOC3)C[C@]1([H])OCCN2c1cccnc1` (stereo partly drawn) | -3.678% |
| 47 | `Cc1cc(-c2cncnc2)nc(C2CCCN2S(C)(=O)=O)n1` (stereo not drawn) | 11.38% |
| 48 | `CCN(CC)S(=O)(=O)N1CCCC(c2ccc(C(=O)O)cc2)C1` (stereo not drawn) | 0.8235% |
| 49 | `CCn1cc(CN2CCCn3nc(CCC(=O)NCCO)cc3C2)cn1` | 8.942% |
| 50 | `CSCC(=O)Nc1cccc(Oc2ccccn2)c1` | -14.46% |
| 51 | `O=C(Cc1noc2ccccc12)N1CCCC1c1noc(C2CC2)n1` (stereo not drawn) | 9.12% |
| 52 | `[H][C@]12CC[C@]([H])(CN(S(=O)(=O)N(C)C)C1)N(Cc1ccc3nsnc3c1)C2` | -12.32% |
| 53 | `CNC(=O)c1cn2cc(-c3ccccc3Cl)n(CC3CC3)c(=O)c2n1` | -6.615% |
| 54 | `CCCc1n[nH]c(C2CN(CCn3cccn3)CCO2)n1` (stereo not drawn) | -17.47% & -277.2% & -270.5% |
| 55 | `O=C(c1cccc(=O)[nH]1)N(Cc1ccsc1)CC1CCCO1` (stereo not drawn) | -3.412% |
| 56 | `CCc1cc(NCCNc2ccncc2C)n2nc(C)c(C)c2n1` | -3.088% |
| 57 | `COc1ccc(-c2cc(C3CCN(C(C)=O)CC3)ccn2)cc1` | -13.79% |
| 58 | `COc1ccc(CN(C)Cc2ccnc(C3CCCO3)n2)cc1` (stereo not drawn) | 14.25% |
| 59 | `CC(C(=O)N1CCCN(Cc2cnn(C(C)C)c2)CC1)n1ccnc1` (stereo not drawn) | 3.608% |
| 60 | `CCc1nnc2ccc(NCC3(N4CCCCC4)CCOCC3)nn12` | -11.97% |
| 61 | `NCCCC(=O)NCC1(O)CCCN(c2ccnc3cccnc23)C1` (stereo not drawn) | 4.057% |
| 62 | `Cn1cc(CNCCOc2ccc(F)c(F)c2)c(-c2cccnc2)n1` | -20.76% |
| 63 | `O=C(CC1CC1)N1CCC2(CC1)CN(c1cccnc1)C(=O)CO2.O=C(O)C(F)(F)F` | 5.592% |
| 64 | `CCOC(=O)c1sc2ccsc2c1CNC(=O)CC` | -7.435% |
| 65 | `COc1ccc(CNC(=O)N2CCC(Cc3cnn(C)c3)C2)cc1C` (stereo not drawn) | 17.39% |
| 66 | `O=C1CC(N(C(=O)c2ccc(F)c(F)c2)C2CC2)C(=O)N1` (stereo not drawn) | 8.38% |
| 67 | `Brc1cnc(NCCCOCC2CCOCC2)nc1` | -8.102% |

For reference, 4 entries once more:

- CC1CN(C)CCN1Cc1cccc(C(=O)N(C)C)c1 (stereo not drawn) : 7.624%
- Cl.O=C(c1ccnc(C2CCNCC2)c1)N1CCCC1 : 8.053%
- Cc1scc(C(=O)N2CCC3(CCCN(C)C3=O)C2)c1-c1ccccc1 (stereo not drawn) : -8.353%
- O=C(O)C(F)(F)F.[H][C@@]12CN(CC3CCOC3)C[C@]1([H])OCCN2c1cccnc1 (stereo partly drawn) : -3.678%